Patent publication US11524073B2, “Anti-human ADRB3 monoclonal antibody and application thereof in disease diagnosis and treatment” (priority 2017, dated 2022)
For at least one compound, name, drawing or mass did not settle the structure.

Test system: cells MCF-7/A549/SW1990
Experiment: Western blot of cells treated with ADRB3 antibody
Format: cell-based, human
Details: rapamycin treatment

## CO[C@H]1C[C@@H]2CC[C@@H](C)[C@@](O)(O2)C(=O)C(=O)N2CCCC[C@H]2C(=O)O[C@H]([C@H](C)C[C@@H]2CC[C@@H](O)[C@H](OC)C2)CC(=O)[C@H](C)/C=C(\C)[C@@H](O)[C@@H](OC)C(=O)[C@H](C)C[C@H](C)/C=C/C=C/C=C/1C [Rapamycin]
  expression of ADRB3: increases
